Test results taken from publication PMC12746902, “Pathogenic Gαo Mutants Drive Dominant GPCR Coupling in GNAO1 Encephalopathies” (The FASEB Journal, 2025).
These are yes or no findings as the source states them, for the method shown. Binding seen in cells or lysates may run through a third protein. Some results given as binding are weak or reduced against the parent protein; the word gives no strength.

Amino acid sequences for entries named in this document (tags omitted). A change or cut given only in a name is not applied to a line headed by its entry.
UniProt P35372: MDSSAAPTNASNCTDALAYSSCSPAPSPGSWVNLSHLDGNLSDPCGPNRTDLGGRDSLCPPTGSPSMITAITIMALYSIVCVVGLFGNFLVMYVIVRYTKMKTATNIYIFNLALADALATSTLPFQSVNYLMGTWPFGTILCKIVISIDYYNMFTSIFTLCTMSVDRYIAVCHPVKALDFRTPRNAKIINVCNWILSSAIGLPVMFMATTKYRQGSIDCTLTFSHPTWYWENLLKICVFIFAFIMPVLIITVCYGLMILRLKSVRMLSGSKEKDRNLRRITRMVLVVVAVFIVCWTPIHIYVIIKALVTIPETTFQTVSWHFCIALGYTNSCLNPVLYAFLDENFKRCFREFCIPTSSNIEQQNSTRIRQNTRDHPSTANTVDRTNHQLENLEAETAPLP
UniProt P08172: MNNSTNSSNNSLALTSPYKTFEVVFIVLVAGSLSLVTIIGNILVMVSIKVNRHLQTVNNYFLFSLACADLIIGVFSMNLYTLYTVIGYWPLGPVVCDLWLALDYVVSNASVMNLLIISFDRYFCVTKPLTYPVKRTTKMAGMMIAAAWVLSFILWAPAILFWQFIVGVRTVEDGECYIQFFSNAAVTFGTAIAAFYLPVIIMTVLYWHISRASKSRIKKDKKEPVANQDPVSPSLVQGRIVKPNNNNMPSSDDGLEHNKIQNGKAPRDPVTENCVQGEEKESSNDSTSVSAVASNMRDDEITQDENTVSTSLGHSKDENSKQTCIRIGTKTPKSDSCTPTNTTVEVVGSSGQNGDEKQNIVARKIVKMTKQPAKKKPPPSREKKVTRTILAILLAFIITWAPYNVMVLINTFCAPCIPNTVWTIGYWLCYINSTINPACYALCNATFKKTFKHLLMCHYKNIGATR
UniProt P09471: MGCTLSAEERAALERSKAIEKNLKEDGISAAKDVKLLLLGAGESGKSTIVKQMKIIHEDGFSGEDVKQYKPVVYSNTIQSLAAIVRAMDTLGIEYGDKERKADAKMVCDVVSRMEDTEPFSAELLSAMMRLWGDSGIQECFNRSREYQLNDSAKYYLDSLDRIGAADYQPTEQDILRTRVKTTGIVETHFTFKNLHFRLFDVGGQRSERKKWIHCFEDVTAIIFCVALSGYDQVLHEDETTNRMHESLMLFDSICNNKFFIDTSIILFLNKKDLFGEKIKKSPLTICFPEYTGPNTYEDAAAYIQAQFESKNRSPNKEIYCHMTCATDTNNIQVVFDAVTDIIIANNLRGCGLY
UniProt P63215: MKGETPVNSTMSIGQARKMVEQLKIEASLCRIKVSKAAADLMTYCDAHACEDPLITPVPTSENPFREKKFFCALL

Tests used:
[1] = target: μ-opioid receptor with C-terminal split-YFP fragment YN (MOR-YN) (UniProt P35372); assay: split reporter; split-YFP BiFC; HEK293T co-transfected with GPCR-YN (M2R, MOR or β2AR), Gαo-YC (wild-type, mutants or ins4A) and Gβ3γ9 at 2.5:2.5:1; fixed cells, confocal microscopy; steady state and after agonist (100 μM ACh, 1 μM fentanyl or 10 μM isoproterenol)
[2] = target: M2 muscarinic acetylcholine receptor with C-terminal split-YFP fragment YC (M2R-YC) (UniProt P08172); assay: split reporter; split-YFP BiFC; HEK293T co-transfected with M2R-YC, YN-Gγ3 (bicistronic with Gβ3) and untagged Gαo variants or empty plasmid; fixed cells, confocal microscopy; 100 μM ACh for 7 min

Substance | binding [1] | binding [2]
Gαo wild-type with internal split-YFP fragment YC at Gly92 (Gαo-YC) (from UniProt P09471 1-354) | binds | –
Gγ3 with N-terminal split-YFP fragment YN (YN-Gγ3), from the T2A-based bicistronic Gβ3-YN-Gγ3 construct (from UniProt P63215 1-75) | – | binds
